The target of this test is MYC (human (endogenous in HepG2)) (UniProt P01106). Briefly: co-IP; co-immunoprecipitation with antibodies against MYC and TXNDC9, cytoplasmic lysate of HepG2 cells.

Chains of the proteins cited; added tags and fusions are not shown.
UniProt P01106: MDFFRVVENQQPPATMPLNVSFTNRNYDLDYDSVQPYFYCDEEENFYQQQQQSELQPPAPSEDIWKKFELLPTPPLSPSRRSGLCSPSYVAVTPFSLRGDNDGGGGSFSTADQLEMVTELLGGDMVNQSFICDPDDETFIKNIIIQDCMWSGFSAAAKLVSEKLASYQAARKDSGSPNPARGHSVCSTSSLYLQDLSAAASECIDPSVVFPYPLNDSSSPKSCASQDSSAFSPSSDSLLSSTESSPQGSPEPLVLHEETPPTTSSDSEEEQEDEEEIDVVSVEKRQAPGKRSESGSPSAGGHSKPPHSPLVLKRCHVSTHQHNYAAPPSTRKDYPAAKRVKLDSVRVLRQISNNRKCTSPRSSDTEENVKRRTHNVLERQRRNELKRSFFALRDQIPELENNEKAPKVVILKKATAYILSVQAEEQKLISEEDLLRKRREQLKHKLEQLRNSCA

These are yes or no findings as the source states them, for the method shown. In cells and extracts the contact can be indirect. Some entries that bind do so weakly or less than the wild type.

B1: thioredoxin domain containing protein 9 (TXNDC9) (protein, UniProt O14530 1-226)
chain: MEADASVDMFSKVLEHQLLQTTKLVEEHLDSEIQKLDQMDEDELERLKEKRLQALRKAQQQKQEWLSKGHGEYREIPSERDFFQEVKESENVVCHFYRDSTFRCKILDRHLAILSKKHLETKFLKLNVEKAPFLCERLHIKVIPTLALLKDGKTQDYVVGFTDLGNTDDFTTETLEWRLGSSDILNYSGNLMEPPFQNQKKFGTNFTKLEKKTIRGKKYDSDSDDD
For the molecule B1, the binding entry is “binds”.

(Values after article PMC6208382.)
